Article PMC5792436

Experiments:
[1] = system: Q5 High-Fidelity DNA polymerase; experiment: EMSA; settings: no Mg2+; 10 mM Tris-HCl pH 7.9, 50 mM KCl, 1 mM EDTA, 5% glycerol, 1 mM DTT, 25 ug/ml BSA; no MgCl2, no poly(dI-dC); 20 min at room temperature; 6% PAGE in 0.5X TBE; commercial protein; protein details: Sso7d fusion; label: 5' biotin; single-stranded DNA
[2] = system: PrimeSTAR GXL DNA polymerase; experiment: EMSA; settings: no Mg2+; 10 mM Tris-HCl pH 7.9, 50 mM KCl, 1 mM EDTA, 5% glycerol, 1 mM DTT, 25 ug/ml BSA; no MgCl2, no poly(dI-dC); 20 min at room temperature; 6% PAGE in 0.5X TBE; commercial protein; label: 5' biotin; single-stranded DNA

TACCGAGCTCTTACGCGTGCCTCTGACTTGCCTCAGAGC [Bio-Olig2.5]
binding result [1]: binds | binding result [2]: binds

For at least one entry, the source does not settle the construct or the ends of the probe.
